Measurements from the supplement of paper PMC12819154, “High-throughput peptide-centric local stability assay extends protein–ligand identification to membrane proteins, tissues and bacteria” (Nature Structural & Molecular Biology, 2025).
This is one part of the list. Most values lie at the level of the controls, where differences are scatter.

Protein sequences, listed by entry. Tags and fused reporters are not part of them. Lines headed by an entry give the natural chain unless they say otherwise; changes in a name come on top.
UniProt Q8WWH5: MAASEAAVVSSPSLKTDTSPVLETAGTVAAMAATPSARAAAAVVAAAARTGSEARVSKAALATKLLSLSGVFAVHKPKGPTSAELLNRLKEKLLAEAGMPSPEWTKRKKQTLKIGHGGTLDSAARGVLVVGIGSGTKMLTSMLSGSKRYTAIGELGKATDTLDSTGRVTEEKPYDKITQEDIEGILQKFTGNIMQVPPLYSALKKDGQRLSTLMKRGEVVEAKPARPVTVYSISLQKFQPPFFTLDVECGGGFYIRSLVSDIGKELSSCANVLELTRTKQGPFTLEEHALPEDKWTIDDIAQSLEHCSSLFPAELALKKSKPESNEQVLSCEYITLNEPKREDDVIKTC
UniProt Q92547, whole entry: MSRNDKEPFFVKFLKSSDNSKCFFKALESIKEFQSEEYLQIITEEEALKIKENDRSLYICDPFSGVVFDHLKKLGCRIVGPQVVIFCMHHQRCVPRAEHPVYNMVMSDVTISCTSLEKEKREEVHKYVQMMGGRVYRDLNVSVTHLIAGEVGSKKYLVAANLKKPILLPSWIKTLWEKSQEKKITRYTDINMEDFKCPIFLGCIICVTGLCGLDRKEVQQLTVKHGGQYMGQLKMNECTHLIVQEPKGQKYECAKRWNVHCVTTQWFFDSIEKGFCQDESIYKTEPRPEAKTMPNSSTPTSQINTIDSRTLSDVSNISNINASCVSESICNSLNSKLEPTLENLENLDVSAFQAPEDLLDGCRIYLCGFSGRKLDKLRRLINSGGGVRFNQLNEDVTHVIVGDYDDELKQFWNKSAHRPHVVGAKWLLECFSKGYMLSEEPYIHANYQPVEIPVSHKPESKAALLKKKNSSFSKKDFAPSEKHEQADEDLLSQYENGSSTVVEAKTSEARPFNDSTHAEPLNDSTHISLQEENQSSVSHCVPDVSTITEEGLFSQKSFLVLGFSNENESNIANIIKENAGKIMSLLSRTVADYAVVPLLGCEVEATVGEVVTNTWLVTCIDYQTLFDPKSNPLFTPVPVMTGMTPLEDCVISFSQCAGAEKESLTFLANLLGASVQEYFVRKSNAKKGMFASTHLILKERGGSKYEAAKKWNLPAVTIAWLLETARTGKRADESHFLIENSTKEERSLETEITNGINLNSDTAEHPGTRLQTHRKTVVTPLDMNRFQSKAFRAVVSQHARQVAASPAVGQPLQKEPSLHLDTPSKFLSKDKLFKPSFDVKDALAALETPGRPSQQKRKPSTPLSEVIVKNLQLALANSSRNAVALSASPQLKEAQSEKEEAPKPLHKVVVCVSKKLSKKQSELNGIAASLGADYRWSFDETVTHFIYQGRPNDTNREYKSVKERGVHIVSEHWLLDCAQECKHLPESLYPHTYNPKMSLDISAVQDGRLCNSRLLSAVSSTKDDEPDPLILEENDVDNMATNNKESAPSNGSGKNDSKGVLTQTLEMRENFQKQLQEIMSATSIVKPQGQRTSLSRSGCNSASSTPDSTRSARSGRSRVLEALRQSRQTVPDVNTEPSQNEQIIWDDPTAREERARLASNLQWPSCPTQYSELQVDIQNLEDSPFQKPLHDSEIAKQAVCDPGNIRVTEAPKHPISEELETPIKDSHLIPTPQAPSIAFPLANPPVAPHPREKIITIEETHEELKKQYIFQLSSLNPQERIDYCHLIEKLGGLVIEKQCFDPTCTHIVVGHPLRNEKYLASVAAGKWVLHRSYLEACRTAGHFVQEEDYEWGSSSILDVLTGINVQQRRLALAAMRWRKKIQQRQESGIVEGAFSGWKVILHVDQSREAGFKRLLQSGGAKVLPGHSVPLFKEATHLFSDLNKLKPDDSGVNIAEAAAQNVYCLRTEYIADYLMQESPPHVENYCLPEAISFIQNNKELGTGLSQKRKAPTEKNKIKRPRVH
UniProt Q8WXE1: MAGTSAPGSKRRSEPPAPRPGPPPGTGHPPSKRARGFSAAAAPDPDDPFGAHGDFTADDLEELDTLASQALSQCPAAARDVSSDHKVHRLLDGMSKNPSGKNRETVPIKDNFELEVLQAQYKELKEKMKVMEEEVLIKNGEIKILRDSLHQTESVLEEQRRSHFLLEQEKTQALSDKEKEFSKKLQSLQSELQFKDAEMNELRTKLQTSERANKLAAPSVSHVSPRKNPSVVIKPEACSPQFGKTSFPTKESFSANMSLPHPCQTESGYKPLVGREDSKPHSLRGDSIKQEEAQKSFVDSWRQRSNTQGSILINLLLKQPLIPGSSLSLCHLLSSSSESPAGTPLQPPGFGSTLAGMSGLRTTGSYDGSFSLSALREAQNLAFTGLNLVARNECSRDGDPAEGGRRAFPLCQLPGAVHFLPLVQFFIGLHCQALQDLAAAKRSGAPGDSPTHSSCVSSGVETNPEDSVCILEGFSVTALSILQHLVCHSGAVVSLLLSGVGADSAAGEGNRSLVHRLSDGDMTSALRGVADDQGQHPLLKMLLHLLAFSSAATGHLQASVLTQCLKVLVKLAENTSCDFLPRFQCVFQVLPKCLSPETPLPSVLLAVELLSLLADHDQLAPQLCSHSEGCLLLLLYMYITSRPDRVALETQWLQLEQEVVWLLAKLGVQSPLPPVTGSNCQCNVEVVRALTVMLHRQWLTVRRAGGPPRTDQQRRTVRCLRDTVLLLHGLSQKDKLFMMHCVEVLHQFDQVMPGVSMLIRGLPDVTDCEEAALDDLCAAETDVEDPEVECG
UniProt Q8TDD1, whole entry: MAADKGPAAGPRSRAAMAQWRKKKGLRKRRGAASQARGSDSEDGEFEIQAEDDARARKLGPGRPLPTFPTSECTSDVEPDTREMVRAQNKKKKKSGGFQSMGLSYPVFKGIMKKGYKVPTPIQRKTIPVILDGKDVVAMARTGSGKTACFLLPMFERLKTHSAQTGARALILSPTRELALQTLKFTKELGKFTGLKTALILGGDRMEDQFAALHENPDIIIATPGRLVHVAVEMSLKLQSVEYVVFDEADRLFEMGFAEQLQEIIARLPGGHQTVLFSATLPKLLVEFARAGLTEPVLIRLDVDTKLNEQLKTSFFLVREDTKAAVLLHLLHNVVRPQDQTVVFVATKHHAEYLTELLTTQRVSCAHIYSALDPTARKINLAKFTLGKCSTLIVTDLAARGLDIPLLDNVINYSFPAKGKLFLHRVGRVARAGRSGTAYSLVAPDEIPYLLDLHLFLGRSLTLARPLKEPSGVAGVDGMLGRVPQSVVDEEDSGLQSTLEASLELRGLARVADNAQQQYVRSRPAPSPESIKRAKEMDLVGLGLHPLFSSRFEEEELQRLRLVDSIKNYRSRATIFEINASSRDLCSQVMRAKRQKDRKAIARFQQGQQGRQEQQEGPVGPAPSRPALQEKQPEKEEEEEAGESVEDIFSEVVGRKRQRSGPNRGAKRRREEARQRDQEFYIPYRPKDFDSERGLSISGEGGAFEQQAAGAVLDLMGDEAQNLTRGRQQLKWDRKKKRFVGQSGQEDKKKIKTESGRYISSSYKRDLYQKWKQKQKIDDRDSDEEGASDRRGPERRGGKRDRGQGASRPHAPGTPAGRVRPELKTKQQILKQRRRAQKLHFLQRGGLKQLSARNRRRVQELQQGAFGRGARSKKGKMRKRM
UniProt Q8WVP5: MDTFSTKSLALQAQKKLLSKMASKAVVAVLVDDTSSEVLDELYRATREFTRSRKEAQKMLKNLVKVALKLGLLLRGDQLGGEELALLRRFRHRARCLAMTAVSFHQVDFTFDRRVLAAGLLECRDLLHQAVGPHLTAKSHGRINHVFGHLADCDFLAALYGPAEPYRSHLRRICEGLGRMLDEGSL
UniProt Q8WTU0: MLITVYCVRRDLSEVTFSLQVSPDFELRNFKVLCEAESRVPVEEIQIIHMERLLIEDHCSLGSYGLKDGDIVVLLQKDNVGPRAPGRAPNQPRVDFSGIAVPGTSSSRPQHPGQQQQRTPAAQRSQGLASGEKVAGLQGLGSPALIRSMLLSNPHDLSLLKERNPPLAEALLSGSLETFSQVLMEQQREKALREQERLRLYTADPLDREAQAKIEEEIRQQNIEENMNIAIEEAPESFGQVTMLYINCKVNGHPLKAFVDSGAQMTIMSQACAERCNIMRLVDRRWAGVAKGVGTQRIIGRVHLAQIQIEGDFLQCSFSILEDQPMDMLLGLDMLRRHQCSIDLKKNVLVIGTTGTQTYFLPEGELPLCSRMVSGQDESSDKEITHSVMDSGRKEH
UniProt Q92610: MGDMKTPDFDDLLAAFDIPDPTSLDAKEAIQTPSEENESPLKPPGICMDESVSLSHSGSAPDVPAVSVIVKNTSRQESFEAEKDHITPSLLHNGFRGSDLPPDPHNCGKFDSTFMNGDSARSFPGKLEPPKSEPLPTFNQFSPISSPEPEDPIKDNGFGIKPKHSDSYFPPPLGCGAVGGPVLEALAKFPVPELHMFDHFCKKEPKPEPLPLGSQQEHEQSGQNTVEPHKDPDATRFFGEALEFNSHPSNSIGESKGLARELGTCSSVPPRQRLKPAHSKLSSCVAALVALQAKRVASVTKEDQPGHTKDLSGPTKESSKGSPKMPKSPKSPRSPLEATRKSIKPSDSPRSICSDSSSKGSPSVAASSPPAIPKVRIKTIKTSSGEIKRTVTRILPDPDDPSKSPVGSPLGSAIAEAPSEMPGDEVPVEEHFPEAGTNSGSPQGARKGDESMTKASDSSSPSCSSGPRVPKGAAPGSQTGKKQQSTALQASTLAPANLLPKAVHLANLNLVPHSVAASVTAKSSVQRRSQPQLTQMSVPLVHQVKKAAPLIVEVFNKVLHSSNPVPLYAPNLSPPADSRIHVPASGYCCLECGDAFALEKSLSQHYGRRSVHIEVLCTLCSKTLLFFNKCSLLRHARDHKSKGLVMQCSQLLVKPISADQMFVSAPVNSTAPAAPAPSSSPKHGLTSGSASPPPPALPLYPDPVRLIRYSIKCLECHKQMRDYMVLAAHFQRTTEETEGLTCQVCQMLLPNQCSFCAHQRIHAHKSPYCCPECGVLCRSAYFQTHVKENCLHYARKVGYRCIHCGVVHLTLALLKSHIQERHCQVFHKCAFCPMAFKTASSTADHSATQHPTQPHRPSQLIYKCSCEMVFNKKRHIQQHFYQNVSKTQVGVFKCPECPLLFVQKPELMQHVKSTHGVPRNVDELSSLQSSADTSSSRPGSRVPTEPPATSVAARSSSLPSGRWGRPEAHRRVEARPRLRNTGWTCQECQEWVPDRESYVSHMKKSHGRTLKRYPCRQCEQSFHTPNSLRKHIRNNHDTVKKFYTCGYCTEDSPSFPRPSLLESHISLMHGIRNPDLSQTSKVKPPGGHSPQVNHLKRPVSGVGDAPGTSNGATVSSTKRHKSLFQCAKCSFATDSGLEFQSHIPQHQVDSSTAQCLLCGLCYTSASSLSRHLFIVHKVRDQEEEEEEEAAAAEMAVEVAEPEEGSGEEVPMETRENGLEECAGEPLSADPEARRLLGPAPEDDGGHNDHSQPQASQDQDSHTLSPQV
UniProt Q8WUM0: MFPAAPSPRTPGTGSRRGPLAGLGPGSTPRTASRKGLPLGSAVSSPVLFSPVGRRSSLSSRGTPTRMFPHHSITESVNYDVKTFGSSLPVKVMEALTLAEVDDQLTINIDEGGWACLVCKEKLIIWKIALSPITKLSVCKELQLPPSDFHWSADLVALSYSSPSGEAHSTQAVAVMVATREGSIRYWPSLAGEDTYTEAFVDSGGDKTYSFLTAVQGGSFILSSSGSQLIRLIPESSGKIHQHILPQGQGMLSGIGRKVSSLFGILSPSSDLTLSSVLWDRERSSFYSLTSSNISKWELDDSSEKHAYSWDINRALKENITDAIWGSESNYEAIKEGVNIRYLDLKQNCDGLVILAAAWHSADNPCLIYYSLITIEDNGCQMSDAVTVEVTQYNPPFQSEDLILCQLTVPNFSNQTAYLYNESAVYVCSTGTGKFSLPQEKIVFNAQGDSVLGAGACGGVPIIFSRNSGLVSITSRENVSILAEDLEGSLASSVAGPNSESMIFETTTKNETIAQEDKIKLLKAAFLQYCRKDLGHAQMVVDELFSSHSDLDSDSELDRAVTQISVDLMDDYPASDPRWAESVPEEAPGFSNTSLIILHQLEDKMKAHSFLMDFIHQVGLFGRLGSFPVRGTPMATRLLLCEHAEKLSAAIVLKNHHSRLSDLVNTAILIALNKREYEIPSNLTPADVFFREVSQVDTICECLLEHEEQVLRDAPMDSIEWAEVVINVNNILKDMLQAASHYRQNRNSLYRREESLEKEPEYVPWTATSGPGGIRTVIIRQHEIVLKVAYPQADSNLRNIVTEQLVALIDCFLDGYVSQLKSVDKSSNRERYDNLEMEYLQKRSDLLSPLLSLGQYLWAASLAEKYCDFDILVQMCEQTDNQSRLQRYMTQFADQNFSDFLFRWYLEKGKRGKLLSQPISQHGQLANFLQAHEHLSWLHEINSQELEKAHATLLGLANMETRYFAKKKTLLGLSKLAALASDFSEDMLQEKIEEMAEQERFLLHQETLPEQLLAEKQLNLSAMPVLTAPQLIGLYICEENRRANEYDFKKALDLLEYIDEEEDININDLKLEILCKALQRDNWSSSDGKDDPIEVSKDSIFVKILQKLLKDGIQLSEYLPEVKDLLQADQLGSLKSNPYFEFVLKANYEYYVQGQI

The targets below were run with Cc1nc(Nc2ncc(C(=O)Nc3c(C)cccc3Cl)s2)cc(N2CCN(CCO)CC2)n1 [dasatinib] (assay: log2 fold change of tryptic peptide abundance, ligand vs vehicle (limited proteolysis) (log2 ratio); higher = more trypsin-susceptible (destabilized)). Settings: ligand concentration: 5 uM; sample: K562 cleared lysate.

Row | Target | log2 fold change
1 | TRUB1 (peptide sequence: GVLVVGIGSGTK, peptide start residue: 126) (UniProt Q8WWH5) | -0.353
2 | UniProt Q8TBZ8 (peptide sequence: AFISLPSFQR, peptide start residue: 233) | 0.441
3 | STARD8 (peptide sequence: SLSIESLCPEDGHR, peptide start residue: 233) (UniProt Q92502) | 0.332
4 | DUSP19 (peptide sequence: KIIETWK, peptide start residue: 30) (UniProt Q8WTR2) | -0.0282
5 | TRAF3IP1 (peptide sequence: EHDKPEKK, peptide start residue: 298) (UniProt Q8TDR0) | 0.75
6 | SNRNP27 (peptide sequence: LMGFASFDSTK, peptide start residue: 106) (UniProt Q8WVK2) | 0.0786
7 | TOPBP1 (peptide sequence: GVHIVSEHWLLDCAQECK, peptide start residue: 965) (UniProt Q92547) | -1.11
8 | ATRIP (peptide sequence: PGPPPGTGHPPSKR, peptide start residue: 20) (UniProt Q8WXE1) | -0.543
9 | SPIRE2 (peptide sequence: AELDSLGHTDWAR, peptide start residue: 232) (UniProt Q8WWL2) | -0.395
10 | MADD (peptide sequence: MVQSEDDAR, peptide start residue: 986) (UniProt Q8WXG6) | 0.481
11 | DDX54 (peptide sequence: CSTLIVTDLAAR, peptide start residue: 389) (UniProt Q8TDD1) | 0.12
12 | NEK7 (peptide sequence: AACLLDGVPVALKK, peptide start residue: 51) (UniProt Q8TDX7) | -0.171
13 | TGFBRAP1 (peptide sequence: AFTLVSAVER, peptide start residue: 6) (UniProt Q8WUH2) | -0.409
14 | UniProt Q92599 (peptide sequence: RELEEETNAFNRR, peptide start residue: 389) | 0.669
15 | UniProt Q8WVP5 (peptide sequence: SLALQAQKK, peptide start residue: 8) | 0.229
16 | UniProt Q8WTU0 (peptide sequence: HQCSIDLK, peptide start residue: 330) | -0.226
17 | UTP15 (peptide sequence: TPEITVSIIK, peptide start residue: 389) (UniProt Q8TED0) | 0.0992
18 | SPRYD4 (peptide sequence: LGVASTEAQR, peptide start residue: 19) (UniProt Q8WW59) | -0.257
19 | ZCRB1 (peptide sequence: KWKPSSGVPSTSDDSR, peptide start residue: 184) (UniProt Q8TBF4) | -0.209
20 | UniProt Q92616 (peptide sequence: VKPPKYLLDSCAPLLR, peptide start residue: 236) | -0.514
21 | DTX3L (peptide sequence: GICVICMDTISNKK, peptide start residue: 559) (UniProt Q8TDB6) | -0.678
22 | KLHDC4 (peptide sequence: KEEPEGGSRPACGGAGTQGPVQLVK, peptide start residue: 362) (UniProt Q8TBB5) | 0.0836
23 | STON2 (peptide sequence: GDNQILQHHVLTR, peptide start residue: 586) (UniProt Q8WXE9) | 0.553
24 | ZNF592 (peptide sequence: RSQPQLTQMSVPLVHQVKK, peptide start residue: 528) (UniProt Q92610) | -0.608
25 | POC1B (peptide sequence: TPHPHEEKVETVEINPK, peptide start residue: 332) (UniProt Q8TC44) | 1.26
26 | NUP133 (peptide sequence: IEEMAEQER, peptide start residue: 992) (UniProt Q8WUM0) | 0.466
27 | CTNNBL1 (peptide sequence: KIEGEKHDMVR, peptide start residue: 458) (UniProt Q8WYA6) | 0.237
28 | THAP4 (peptide sequence: SQVCCLREQVEKK, peptide start residue: 357) (UniProt Q8WY91) | -0.209
